Test results taken from the supplement of paper PMC6411743.
± gives the standard deviation of the averaged measurements. Some of the results follow.

Tests used:
Assay in all cases: NP40-soluble protein abundance relative to vehicle (solubility fold change) (ratio); higher = more soluble protein in presence of GTP
[1] = molecular target: T1, CDS2 (UniProt O95674)
T1 sequence (whole entry): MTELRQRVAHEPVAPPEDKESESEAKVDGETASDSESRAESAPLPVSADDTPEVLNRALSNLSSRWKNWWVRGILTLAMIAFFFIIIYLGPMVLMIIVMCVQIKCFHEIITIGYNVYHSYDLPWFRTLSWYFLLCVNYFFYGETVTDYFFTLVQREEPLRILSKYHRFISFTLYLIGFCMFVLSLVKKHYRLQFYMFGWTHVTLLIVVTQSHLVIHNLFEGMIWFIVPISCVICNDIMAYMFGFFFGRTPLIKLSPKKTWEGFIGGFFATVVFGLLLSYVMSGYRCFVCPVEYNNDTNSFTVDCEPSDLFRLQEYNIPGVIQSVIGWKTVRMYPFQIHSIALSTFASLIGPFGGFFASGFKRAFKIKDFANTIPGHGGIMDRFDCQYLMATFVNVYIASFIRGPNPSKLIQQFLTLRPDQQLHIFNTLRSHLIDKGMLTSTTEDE
Method in brief: (§1)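 Crude Jurkat lysate, prepared by Dounce homogenisation, was exposed to eight concentrations from 0.1 to 10 mM for 10 min at room temperature and then 3 min at 37 °C. Solubilisation used 0.8% NP40 with benzonase for 60 min at 4 °C, followed by ultracentrifugation and TMT labelling of the supernatant for LC-MS/MS. After vsn normalisation of intensities, each value is the fold change against the detergent-processed vehicle within each replicate, across three independent experiments.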

[2] = molecular target: T2, CSDE1 (UniProt O75534)
T2 sequence (whole entry): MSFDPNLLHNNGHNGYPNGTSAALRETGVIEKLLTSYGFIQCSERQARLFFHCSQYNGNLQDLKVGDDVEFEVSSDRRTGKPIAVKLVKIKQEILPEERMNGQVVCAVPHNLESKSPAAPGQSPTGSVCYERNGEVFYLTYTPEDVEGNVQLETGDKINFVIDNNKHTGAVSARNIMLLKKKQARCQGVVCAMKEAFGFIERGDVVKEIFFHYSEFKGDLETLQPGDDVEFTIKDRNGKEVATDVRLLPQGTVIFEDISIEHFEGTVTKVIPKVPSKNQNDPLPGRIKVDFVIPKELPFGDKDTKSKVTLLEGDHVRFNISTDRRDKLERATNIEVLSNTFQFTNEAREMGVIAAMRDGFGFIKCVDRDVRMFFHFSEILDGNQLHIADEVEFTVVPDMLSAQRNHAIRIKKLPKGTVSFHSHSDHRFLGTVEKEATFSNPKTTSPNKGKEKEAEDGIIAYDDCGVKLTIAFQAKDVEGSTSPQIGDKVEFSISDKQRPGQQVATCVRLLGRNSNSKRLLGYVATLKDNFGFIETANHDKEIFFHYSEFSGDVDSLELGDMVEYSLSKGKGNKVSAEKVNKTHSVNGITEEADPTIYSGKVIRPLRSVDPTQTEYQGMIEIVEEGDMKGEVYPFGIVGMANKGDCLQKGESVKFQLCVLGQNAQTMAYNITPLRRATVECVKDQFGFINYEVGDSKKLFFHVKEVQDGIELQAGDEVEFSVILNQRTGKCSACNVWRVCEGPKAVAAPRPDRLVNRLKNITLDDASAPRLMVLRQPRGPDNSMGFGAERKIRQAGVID
Method in brief: as §1

[3] = molecular target: T3, CSTB (UniProt P04080)
T3 sequence (whole entry): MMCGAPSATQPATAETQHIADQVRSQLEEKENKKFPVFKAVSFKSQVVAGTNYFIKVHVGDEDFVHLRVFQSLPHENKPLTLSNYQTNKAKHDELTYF
Method in brief: as §1

[4] = molecular target: T4, GLA (UniProt P06280)
T4 sequence (whole entry): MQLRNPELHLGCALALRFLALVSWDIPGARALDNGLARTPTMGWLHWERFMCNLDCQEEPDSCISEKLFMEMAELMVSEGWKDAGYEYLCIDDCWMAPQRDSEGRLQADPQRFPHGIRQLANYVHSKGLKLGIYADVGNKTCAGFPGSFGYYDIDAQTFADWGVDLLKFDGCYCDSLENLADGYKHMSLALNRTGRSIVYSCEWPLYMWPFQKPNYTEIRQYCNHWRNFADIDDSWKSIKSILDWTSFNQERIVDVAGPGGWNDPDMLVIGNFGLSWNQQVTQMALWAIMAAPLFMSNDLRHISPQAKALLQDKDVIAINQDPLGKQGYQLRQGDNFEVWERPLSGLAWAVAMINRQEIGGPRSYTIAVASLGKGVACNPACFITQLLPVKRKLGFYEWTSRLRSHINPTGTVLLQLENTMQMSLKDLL
Method in brief: as §1

[5] = molecular target: T5, SEC24A (UniProt O95486)
T5 sequence (whole entry): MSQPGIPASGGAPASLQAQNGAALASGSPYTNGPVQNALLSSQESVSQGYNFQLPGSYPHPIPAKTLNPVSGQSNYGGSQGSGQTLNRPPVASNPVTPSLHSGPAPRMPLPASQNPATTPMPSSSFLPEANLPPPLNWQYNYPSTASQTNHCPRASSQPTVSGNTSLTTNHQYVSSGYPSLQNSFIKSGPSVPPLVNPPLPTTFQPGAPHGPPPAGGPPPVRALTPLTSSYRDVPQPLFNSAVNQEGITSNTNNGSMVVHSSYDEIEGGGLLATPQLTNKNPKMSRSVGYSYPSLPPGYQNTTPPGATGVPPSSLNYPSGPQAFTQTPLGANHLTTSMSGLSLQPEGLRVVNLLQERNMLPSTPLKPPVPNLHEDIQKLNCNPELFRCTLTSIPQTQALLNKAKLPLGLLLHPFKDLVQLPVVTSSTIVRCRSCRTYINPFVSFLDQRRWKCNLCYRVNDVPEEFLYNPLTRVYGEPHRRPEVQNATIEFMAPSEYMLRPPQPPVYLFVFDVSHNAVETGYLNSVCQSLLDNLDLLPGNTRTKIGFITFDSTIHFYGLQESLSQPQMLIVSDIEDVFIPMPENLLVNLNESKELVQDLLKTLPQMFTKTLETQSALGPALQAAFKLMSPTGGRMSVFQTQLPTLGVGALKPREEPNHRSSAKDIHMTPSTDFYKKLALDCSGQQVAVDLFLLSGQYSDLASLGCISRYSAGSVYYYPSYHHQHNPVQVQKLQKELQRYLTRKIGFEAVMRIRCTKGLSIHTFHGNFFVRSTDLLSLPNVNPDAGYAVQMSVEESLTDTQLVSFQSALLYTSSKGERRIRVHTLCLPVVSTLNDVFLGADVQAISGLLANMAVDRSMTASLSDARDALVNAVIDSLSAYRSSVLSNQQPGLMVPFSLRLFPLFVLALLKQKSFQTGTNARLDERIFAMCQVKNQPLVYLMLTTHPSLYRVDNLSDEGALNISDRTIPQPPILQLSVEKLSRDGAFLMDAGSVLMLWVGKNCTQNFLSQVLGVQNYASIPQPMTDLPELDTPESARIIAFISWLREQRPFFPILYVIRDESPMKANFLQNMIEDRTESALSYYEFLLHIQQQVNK
Method in brief: as §1

[6] = molecular target: T6, SPAG7 (UniProt O75391)
T6 sequence (whole entry): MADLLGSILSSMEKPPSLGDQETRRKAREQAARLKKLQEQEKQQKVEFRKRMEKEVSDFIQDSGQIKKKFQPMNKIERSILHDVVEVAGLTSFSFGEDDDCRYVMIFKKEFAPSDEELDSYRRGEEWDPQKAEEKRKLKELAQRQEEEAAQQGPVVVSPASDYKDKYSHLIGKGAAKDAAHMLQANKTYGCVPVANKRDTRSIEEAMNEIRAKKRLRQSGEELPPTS
Method in brief: as §1

[7] = molecular target: T7, USP1 (UniProt O94782)
T7 sequence (whole entry): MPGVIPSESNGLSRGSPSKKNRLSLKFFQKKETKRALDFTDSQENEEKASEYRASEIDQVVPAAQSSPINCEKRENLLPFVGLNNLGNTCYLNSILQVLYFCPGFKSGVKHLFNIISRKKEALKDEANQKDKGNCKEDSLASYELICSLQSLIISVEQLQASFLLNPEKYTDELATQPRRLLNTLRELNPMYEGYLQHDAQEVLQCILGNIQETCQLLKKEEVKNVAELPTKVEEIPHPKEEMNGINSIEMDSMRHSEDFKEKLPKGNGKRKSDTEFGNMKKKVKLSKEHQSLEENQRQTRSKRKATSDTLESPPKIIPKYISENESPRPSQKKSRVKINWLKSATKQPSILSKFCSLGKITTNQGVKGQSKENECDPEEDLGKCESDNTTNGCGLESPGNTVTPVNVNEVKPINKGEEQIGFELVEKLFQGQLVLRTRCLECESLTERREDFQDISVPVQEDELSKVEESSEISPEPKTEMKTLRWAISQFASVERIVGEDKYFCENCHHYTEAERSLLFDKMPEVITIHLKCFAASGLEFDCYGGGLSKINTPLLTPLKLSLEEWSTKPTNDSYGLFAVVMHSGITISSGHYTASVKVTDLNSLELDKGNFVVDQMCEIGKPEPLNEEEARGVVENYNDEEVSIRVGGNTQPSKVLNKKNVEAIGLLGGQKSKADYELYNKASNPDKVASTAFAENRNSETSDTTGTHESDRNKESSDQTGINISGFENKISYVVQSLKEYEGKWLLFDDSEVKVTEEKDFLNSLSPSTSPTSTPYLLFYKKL
Method in brief: as §1

## Nc1nc2c(ncn2[C@@H]2O[C@H](COP(=O)(O)OP(=O)(O)OP(=O)(O)O)[C@@H](O)[C@H]2O)c(=O)[nH]1 [guanosine triphosphate]
[1]; concentration: 0.1mM
  NP40-soluble protein abundance: 1.1 ± 0.075
[1]; concentration: 0.5mM
  NP40-soluble protein abundance: 1 ± 0.12
[1]; concentration: 1mM
  NP40-soluble protein abundance: 0.858 ± 0.026
[1]; concentration: 2mM
  NP40-soluble protein abundance: 0.924 ± 0.046
[1]; concentration: 4mM
  NP40-soluble protein abundance: 0.868 ± 0.077
[1]; concentration: 6mM
  NP40-soluble protein abundance: 0.841 ± 0.12
[1]; concentration: 8mM
  NP40-soluble protein abundance: 0.831 ± 0.076
[1]; concentration: 10mM
  NP40-soluble protein abundance: 0.862 ± 0.13
[2]; concentration: 0.1mM
  NP40-soluble protein abundance: 0.9909 ± 0.0073
[2]; concentration: 0.5mM
  NP40-soluble protein abundance: 1.01 ± 0.037
[2]; concentration: 1mM
  NP40-soluble protein abundance: 0.9433 ± 0.0032
[2]; concentration: 2mM
  NP40-soluble protein abundance: 0.925 ± 0.024
[2]; concentration: 4mM
  NP40-soluble protein abundance: 0.916 ± 0.023
[2]; concentration: 6mM
  NP40-soluble protein abundance: 0.909 ± 0.027
[2]; concentration: 8mM
  NP40-soluble protein abundance: 0.906 ± 0.021
[2]; concentration: 10mM
  NP40-soluble protein abundance: 0.859 ± 0.045
[3]; concentration: 0.1mM
  NP40-soluble protein abundance: 0.962 ± 0.066
[3]; concentration: 0.5mM
  NP40-soluble protein abundance: 0.917 ± 0.037
[3]; concentration: 1mM
  NP40-soluble protein abundance: 1.03 ± 0.095
[3]; concentration: 2mM
  NP40-soluble protein abundance: 0.977 ± 0.086
[3]; concentration: 4mM
  NP40-soluble protein abundance: 0.983 ± 0.11
[3]; concentration: 6mM
  NP40-soluble protein abundance: 0.963 ± 0.11
[3]; concentration: 8mM
  NP40-soluble protein abundance: 1.01 ± 0.14
[3]; concentration: 10mM
  NP40-soluble protein abundance: 0.975 ± 0.087
[4]; concentration: 0.1mM
  NP40-soluble protein abundance: 1.04 ± 0.017
[4]; concentration: 0.5mM
  NP40-soluble protein abundance: 1.04 ± 0.018
[4]; concentration: 1mM
  NP40-soluble protein abundance: 1.01 ± 0.039
[4]; concentration: 2mM
  NP40-soluble protein abundance: 0.982 ± 0.068
[4]; concentration: 4mM
  NP40-soluble protein abundance: 0.985 ± 0.063
[4]; concentration: 6mM
  NP40-soluble protein abundance: 0.966 ± 0.087
[4]; concentration: 8mM
  NP40-soluble protein abundance: 0.983 ± 0.04
[4]; concentration: 10mM
  NP40-soluble protein abundance: 0.979 ± 0.048
[5]; concentration: 0.1mM
  NP40-soluble protein abundance: 0.974 ± 0.013
[5]; concentration: 0.5mM
  NP40-soluble protein abundance: 0.986 ± 0.021
[5]; concentration: 1mM
  NP40-soluble protein abundance: 0.926 ± 0.041
[5]; concentration: 2mM
  NP40-soluble protein abundance: 0.909 ± 0.026
[5]; concentration: 4mM
  NP40-soluble protein abundance: 0.957 ± 0.019
[5]; concentration: 6mM
  NP40-soluble protein abundance: 0.944 ± 0.02
[5]; concentration: 8mM
  NP40-soluble protein abundance: 0.909 ± 0.027
[5]; concentration: 10mM
  NP40-soluble protein abundance: 0.915 ± 0.036
[6]; concentration: 0.1mM
  NP40-soluble protein abundance: 0.906 ± 0.06
[6]; concentration: 0.5mM
  NP40-soluble protein abundance: 0.848 ± 0.081
[6]; concentration: 1mM
  NP40-soluble protein abundance: 0.997 ± 0.071
[6]; concentration: 2mM
  NP40-soluble protein abundance: 0.908 ± 0.066
[6]; concentration: 4mM
  NP40-soluble protein abundance: 0.896 ± 0.095
[6]; concentration: 6mM
  NP40-soluble protein abundance: 0.909 ± 0.13
[6]; concentration: 8mM
  NP40-soluble protein abundance: 0.897 ± 0.14
[6]; concentration: 10mM
  NP40-soluble protein abundance: 0.899 ± 0.061
[7]; concentration: 0.1mM
  NP40-soluble protein abundance: 1.06 ± 0.14
[7]; concentration: 0.5mM
  NP40-soluble protein abundance: 0.994 ± 0.047
[7]; concentration: 1mM
  NP40-soluble protein abundance: 1.02 ± 0.053
[7]; concentration: 2mM
  NP40-soluble protein abundance: 0.98 ± 0.063
